This passage reports binding results from paper doi:10.1101/2020.02.01.930172.

Test [1] deals with His-SIRT1 (UniProt Q96EB6). In words: pull-down.
The target of test [2] is GST-SIRT6 (human), Q8N6T7. Nature of the test: pull-down. As to conditions: remark: other sources report otherwise.
Test [3] deals with GST-SIRT6 (human), Q8N6T7. In words: pull-down. As to conditions: remark: other sources report otherwise. The source holds these as a separate data set.
Test [4] deals with endogenous SIRT6 (human (endogenous in HEK293 and HeLa)), Q8N6T7. In words: co-IP. Conditions: remark: other sources report otherwise.

Results are given in words; binding and its absence hold for the method and conditions named. For some of these results: Binding seen in cells or lysates may run through a third protein. Some results given as binding are weak or reduced against the parent protein; the word gives no strength. For some of these results: Sequences can lack the tags named with a protein.

B1: K33ac peptide, a 14-aa peptide containing acetylated SIRT6 K33 (peptide)
peptide: PEELERKVWELARL
modifications: acetyl-lysine at SIRT6 K33 (K(ac), seventh residue of the peptide)
As for B1, in test [1], the binding result is given as “binds”.

B2: His-SIRT1, Q96EB6 (protein)
chain: MADEAALALQPGGSPSAAGADREAASSPAGEPLRKRPRRDGPGLERSPGEPGGAAPEREVPAAARGCPGAAAAALWREAEAEAAAAGGEQEAQATAAAGEGDNGPGLQGPSREPPLADNLYDEDDDDEGEEEEEAAAAAIGYRDNLLFGDEIITNGFHSCESDEEDRASHASSSDWTPRPRIGPYTFVQQHLMIGTDPRTILKDLLPETIPPPELDDMTLWQIVINILSEPPKRKKRKDINTIEDAVKLLQECKKIIVLTGAGVSVSCGIPDFRSRDGIYARLAVDFPDLPDPQAMFDIEYFRKDPRPFFKFAKEIYPGQFQPSLCHKFIALSDKEGKLLRNYTQNIDTLEQVAGIQRIIQCHGSFATASCLICKYKVDCEAVRGDIFNQVVPRCPRCPADEPLAIMKPEIVFFGENLPEQFHRAMKYDKDEVDLLIVIGSSLKVRPVALIPSSIPHEVPQILINREPLPHLHFDVELLGDCDVIINELCHRLGGEYAKLCCNPVKLSEITEKPPRTQKELAYLSELPPTPLHVSEDSSSPERTSPPDSSVIVTLLDQAAKSNDDLDVSESKGCMEEKPQEVQTSRNVESIAEQMENPDLKNVGSSTGEKNERTSVAGTVRKCWPNRVAKEQISRRLDGNQYLFLPPNRYIFHGAEVYSDSEDDVLSSSSCGSNSDSGTCQSPSLEEPMEDESEIEEFYNGLEDEPDVPERAGGAGFGTDGDDQEAINEAISVKQEVTDMNYPSNKS
Consider B2, for which the binding entry in test [2] and in test [3] was “binds” each time.

B3: endogenous SIRT1, Q96EB6 (protein)
chain: B2 chain
As for B3, the binding result in test [4] is on record as “binds”.
